Assay results taken from the supplement of paper PMC10849652.
This is one part of the list.

The chains behind the UniProt entries cited, without tags or fusion partners. Where a name states a change or a piece, a line headed by the entry shows the natural chain unless it says otherwise.
UniProt Q9NW13: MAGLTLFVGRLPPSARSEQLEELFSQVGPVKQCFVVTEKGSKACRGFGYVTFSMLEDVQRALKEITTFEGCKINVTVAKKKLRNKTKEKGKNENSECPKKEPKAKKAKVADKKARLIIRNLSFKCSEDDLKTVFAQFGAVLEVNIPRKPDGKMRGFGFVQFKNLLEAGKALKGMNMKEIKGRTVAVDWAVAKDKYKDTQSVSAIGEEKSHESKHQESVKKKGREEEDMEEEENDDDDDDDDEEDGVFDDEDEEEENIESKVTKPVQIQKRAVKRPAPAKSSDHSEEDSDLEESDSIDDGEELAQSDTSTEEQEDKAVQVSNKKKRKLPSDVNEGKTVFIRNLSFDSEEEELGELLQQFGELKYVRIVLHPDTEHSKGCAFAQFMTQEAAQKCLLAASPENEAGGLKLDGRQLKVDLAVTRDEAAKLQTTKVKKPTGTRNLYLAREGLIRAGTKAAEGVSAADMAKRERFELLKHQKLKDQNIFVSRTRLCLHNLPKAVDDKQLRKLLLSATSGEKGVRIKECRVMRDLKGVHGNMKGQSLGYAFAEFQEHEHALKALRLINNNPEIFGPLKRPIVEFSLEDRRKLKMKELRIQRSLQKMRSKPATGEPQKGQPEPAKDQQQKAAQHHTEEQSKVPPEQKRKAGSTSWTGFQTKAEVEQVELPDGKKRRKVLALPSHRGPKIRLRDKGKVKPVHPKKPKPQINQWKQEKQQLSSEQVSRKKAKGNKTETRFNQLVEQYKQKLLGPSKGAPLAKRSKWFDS
UniProt P35241, whole entry, looked up: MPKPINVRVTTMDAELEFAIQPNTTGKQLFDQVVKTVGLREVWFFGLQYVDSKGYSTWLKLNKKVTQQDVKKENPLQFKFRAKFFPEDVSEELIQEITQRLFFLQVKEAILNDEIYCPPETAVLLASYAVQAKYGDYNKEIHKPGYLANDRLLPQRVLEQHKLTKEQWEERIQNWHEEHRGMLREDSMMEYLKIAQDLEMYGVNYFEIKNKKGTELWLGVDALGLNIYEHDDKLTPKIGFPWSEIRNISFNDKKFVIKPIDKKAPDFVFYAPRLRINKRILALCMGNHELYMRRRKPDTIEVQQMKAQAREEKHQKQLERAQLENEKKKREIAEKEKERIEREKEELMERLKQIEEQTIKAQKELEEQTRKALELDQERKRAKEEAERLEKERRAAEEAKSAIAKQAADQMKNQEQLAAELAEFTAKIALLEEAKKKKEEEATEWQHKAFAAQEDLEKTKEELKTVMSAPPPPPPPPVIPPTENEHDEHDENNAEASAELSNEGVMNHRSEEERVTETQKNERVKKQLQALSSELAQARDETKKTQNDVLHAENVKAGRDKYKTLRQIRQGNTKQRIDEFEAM
UniProt P35249, whole entry, looked up: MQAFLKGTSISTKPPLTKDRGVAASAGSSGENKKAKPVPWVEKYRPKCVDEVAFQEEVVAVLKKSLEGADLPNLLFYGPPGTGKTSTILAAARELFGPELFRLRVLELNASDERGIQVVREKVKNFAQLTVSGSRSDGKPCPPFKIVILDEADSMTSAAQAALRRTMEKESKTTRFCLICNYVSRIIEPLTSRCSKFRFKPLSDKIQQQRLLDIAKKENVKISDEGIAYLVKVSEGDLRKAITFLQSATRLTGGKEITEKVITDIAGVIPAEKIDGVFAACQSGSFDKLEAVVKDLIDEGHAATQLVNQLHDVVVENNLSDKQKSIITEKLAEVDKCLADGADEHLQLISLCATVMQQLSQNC
UniProt P98175: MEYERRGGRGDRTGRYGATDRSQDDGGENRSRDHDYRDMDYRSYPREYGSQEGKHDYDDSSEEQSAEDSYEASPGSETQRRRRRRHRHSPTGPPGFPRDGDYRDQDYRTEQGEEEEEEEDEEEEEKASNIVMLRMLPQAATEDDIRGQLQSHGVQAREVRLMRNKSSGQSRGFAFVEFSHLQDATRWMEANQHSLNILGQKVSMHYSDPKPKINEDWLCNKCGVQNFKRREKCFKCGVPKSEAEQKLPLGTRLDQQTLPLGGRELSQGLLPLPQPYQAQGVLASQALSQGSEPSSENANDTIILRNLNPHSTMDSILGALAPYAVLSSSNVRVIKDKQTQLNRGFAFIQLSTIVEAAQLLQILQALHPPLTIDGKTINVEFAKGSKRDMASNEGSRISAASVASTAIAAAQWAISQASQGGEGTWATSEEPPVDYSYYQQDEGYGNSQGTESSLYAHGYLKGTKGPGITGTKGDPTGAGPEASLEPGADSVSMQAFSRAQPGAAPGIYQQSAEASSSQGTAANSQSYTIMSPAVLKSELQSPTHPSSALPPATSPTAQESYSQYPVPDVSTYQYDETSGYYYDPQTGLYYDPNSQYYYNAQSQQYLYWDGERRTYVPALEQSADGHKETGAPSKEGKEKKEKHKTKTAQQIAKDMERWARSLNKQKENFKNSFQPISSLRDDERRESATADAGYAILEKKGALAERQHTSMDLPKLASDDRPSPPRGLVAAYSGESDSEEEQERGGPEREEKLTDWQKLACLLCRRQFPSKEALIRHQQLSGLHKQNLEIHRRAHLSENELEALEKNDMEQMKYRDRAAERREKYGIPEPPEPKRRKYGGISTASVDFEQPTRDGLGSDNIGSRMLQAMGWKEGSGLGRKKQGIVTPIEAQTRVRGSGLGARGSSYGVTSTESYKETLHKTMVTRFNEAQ
UniProt Q2KHR2: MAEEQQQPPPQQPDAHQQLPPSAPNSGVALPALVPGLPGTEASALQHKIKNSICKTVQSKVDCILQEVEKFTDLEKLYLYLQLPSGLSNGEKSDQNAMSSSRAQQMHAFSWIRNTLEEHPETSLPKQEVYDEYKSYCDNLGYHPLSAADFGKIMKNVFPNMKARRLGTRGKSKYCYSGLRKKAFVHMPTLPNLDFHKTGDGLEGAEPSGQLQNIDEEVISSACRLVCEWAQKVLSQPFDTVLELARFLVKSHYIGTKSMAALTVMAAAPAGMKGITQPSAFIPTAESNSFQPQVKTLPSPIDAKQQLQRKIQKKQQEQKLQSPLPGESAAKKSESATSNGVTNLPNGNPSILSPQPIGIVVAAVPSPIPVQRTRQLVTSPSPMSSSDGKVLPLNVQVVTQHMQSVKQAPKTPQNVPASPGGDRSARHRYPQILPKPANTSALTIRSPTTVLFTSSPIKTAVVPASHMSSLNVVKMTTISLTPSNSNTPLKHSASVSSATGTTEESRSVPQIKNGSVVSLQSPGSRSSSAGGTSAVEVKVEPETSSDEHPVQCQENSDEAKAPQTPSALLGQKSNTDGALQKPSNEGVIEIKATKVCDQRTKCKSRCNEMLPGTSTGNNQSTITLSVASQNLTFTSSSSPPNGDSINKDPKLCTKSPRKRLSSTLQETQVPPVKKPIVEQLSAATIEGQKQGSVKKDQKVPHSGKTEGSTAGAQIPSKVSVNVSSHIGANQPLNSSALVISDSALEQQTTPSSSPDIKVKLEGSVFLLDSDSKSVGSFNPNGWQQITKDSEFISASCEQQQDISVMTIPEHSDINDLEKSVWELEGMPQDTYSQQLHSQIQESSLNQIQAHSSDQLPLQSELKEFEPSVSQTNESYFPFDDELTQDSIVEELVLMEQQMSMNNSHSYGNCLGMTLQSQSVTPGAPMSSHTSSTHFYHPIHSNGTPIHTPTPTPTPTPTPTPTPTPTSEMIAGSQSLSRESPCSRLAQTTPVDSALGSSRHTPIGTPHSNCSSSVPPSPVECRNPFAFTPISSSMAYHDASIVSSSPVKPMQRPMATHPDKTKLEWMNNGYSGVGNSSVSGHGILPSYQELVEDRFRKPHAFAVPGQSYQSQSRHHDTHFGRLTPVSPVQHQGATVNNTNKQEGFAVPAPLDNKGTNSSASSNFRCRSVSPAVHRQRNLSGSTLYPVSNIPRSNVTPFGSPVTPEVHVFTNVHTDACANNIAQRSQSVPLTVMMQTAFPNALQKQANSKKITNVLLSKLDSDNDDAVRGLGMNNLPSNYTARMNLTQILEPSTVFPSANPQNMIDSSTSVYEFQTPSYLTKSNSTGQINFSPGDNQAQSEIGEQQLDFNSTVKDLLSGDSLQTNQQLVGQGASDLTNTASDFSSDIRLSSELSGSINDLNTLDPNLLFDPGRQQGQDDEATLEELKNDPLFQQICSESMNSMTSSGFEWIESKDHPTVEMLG
UniProt Q5TC82: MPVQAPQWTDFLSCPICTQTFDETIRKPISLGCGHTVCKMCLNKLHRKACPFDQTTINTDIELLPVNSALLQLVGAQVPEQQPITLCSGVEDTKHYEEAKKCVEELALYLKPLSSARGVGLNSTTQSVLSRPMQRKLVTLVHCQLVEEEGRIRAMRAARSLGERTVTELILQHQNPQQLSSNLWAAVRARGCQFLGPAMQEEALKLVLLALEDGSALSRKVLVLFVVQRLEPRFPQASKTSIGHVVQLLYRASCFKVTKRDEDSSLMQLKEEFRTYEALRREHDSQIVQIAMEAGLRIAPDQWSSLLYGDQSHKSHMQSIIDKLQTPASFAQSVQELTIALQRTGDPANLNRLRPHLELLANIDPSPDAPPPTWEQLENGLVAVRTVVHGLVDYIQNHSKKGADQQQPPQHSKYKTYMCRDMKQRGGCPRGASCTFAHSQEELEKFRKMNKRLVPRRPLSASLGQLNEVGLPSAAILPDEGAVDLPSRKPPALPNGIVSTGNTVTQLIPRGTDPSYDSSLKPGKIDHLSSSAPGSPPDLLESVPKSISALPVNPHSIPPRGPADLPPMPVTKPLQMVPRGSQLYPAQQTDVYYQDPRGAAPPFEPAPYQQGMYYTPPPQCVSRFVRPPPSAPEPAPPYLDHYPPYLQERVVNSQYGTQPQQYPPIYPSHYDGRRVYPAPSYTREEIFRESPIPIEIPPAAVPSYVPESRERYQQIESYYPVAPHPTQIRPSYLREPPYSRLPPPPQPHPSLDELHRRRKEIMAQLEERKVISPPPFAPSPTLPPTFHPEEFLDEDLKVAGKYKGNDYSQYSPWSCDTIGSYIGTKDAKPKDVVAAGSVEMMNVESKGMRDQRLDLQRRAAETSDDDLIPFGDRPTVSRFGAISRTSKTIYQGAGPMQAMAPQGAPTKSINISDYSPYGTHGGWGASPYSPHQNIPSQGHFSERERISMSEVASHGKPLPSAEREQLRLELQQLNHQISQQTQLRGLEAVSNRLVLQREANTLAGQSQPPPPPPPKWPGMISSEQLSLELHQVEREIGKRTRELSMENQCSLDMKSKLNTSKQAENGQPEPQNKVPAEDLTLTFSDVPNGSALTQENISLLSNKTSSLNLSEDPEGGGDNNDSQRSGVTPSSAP
UniProt Q5T8P6: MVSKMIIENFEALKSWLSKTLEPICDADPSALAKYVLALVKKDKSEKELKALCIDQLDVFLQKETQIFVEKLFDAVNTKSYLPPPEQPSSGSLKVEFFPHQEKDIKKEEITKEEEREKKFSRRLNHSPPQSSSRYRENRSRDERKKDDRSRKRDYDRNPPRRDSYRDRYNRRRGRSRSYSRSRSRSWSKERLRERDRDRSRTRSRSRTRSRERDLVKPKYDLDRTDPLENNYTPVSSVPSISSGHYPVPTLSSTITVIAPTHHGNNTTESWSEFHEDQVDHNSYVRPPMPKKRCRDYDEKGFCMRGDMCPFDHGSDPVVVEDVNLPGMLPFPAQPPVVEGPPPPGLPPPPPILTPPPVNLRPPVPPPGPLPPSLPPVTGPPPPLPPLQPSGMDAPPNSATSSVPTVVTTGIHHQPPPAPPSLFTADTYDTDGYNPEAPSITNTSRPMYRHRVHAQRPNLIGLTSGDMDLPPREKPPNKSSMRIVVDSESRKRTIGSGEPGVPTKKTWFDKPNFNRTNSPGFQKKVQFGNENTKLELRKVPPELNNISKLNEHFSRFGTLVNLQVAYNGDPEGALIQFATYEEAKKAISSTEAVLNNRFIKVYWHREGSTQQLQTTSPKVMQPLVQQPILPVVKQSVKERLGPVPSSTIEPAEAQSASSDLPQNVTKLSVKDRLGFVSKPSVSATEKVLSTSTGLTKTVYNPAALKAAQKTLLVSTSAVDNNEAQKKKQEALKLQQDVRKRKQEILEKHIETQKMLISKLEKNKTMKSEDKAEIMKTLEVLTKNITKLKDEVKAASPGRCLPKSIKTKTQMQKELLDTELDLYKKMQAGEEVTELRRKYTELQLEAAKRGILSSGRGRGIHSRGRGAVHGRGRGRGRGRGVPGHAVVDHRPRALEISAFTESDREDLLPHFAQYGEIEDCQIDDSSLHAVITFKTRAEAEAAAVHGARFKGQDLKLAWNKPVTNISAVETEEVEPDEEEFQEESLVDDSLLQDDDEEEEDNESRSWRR
UniProt P62877, whole entry, looked up: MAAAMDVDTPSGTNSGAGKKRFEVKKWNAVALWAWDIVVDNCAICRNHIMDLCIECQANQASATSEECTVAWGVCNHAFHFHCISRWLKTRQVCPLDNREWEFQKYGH
UniProt P82980: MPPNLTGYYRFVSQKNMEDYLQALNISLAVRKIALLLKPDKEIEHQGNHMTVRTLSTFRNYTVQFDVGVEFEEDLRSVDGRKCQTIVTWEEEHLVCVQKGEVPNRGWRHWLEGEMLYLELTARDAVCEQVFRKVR

What was measured:
Assay in all cases: log2 fold change, soluble protein after heating vs DMSO (PISA); higher = thermal stabilisation; K562 lysate, 10 uM; active = over 0.2 and 3.5 SD of the protein, either way, in both replicates (recomputed)
vemurafenib = compound: CCCS(=O)(=O)Nc1ccc(F)c(C(=O)c2c[nH]c3ncc(-c4ccc(Cl)cc4)cc23)c1F [vemurafenib]
How it was run: (§1)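 The values are log-two fold changes in thermal stability compared with solvent controls and come from duplicates. They were obtained by TMTpro 16plex LC-MS/MS, with channel sums equalised, on the supernatant after 21,000xg for 90 min. That supernatant came from crude K562 extract at 1 mg/mL protein treated with 10 μM compound for 30 min, heated for 3 min across 48°C-58°C, pooled and brought to 0.5% NP-40 at 4°C.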

[1] = compound: CCCS(=O)(=O)Nc1ccc(F)c(C(=O)c2c[nH]c3ncc(Cl)cc23)c1F
How it was run: as §1

barasertib = compound: CCN(CCCOc1ccc2c(Nc3cc(CC(=O)Nc4cccc(F)c4)[nH]n3)ncnc2c1)CCOP(=O)(O)O [barasertib]
How it was run: as §1

[2] = compound: CC[C@@H]1C(=O)N(C)c2cnc(Nc3ccc(C(=O)NC4CCN(C)CC4)cc3OC)nc2N1C1CCCC1
How it was run: as §1

volasertib = compound: CC[C@@H]1C(=O)N(C)c2cnc(Nc3ccc(C(=O)N[C@H]4CC[C@H](N5CCN(CC6CC6)CC5)CC4)cc3OC)nc2N1C(C)C [volasertib]
How it was run: as §1

[3] = compound: CCn1c(C(=O)N(C2CC2)C2CC2)cc2c3c(ncn3C)c(Nc3cc(C)n(C)n3)nc21
How it was run: as §1

[4] = compound: CCn1cc(-c2ccnc3[nH]c(-c4cccc(CN(C)C)c4)cc23)c(-c2ccc(NC(=O)N(C)C)cc2)n1
How it was run: as §1

[5] = compound: CN1CCC(CNc2ccc3ncc(-c4cccc(OC(F)(F)F)c4)n3n2)CC1
How it was run: as §1

saracatinib = compound: CN1CCN(CCOc2cc(OC3CCOCC3)c3c(Nc4c(Cl)ccc5c4OCO5)ncnc3c2)CC1 [saracatinib]
How it was run: as §1

sotrastaurin = compound: CN1CCN(c2nc(C3=C(c4c[nH]c5ccccc45)C(=O)NC3=O)c3ccccc3n2)CC1 [sotrastaurin]
How it was run: as §1

Measured: log2 fold change

RBM28 (UniProt Q9NW13)
inactive: vemurafenib 0.007 | [1] 0.025 | barasertib 0.014 | [2] -0.033 | volasertib -0.021 | [3] 0.009 | [4] 0.014 | [5] -0.044 | saracatinib 0.001 | sotrastaurin -0.005

RFX5 (UniProt P48382)
inactive: vemurafenib -0.041 | [1] 0.027 | barasertib 0.044 | [2] -0.01 | volasertib -0.018 | [3] -0.025 | [4] 0.065 | [5] -0.014 | saracatinib -0.057 | sotrastaurin -0.045

RDX (UniProt P35241)
active: [4] 0.712
inactive: vemurafenib 0 | [1] -0.008 | barasertib 0.003 | [2] 0.016 | volasertib 0.017 | [3] -0.018 | [5] -0.109 | saracatinib -0.018 | sotrastaurin -0.013

RFC4 (UniProt P35249)
inactive: vemurafenib 0.047 | [1] 0.02 | barasertib 0.02 | [2] -0.012 | volasertib -0.042 | [3] 0.003 | [4] -0.086 | [5] 0.028 | saracatinib 0.044 | sotrastaurin 0.003

RELN (UniProt P78509)
inactive: vemurafenib 0.043 | [1] -0.098 | barasertib 0.004 | [2] 0.024 | volasertib -0.019 | [3] 0.021 | [4] -0.024 | [5] 0.152 | saracatinib 0.035 | sotrastaurin 0.02

RAVER1 (UniProt E9PAU2)
inactive: vemurafenib 0.042 | [1] 0.043 | barasertib -0.051 | [2] 0.072 | volasertib -0.033 | [3] 0.055 | [4] 0.044 | [5] -0.067 | saracatinib 0.007 | sotrastaurin -0.022

RARS (UniProt P54136)
inactive: vemurafenib -0.004 | [1] -0.003 | barasertib 0.046 | [2] -0.093 | volasertib -0.078 | [3] 0.067 | [4] 0.013 | [5] -0.039 | saracatinib 0.027 | sotrastaurin 0.045

Quoted at random: two records from the list, in no set order.
RFX5 (UniProt P48382)
inactive: vemurafenib -0.041 | [1] 0.027 | barasertib 0.044 | [2] -0.01 | volasertib -0.018 | [3] -0.025 | [4] 0.065 | [5] -0.014 | saracatinib -0.057 | sotrastaurin -0.045

RARS (UniProt P54136)
inactive: vemurafenib -0.004 | [1] -0.003 | barasertib 0.046 | [2] -0.093 | volasertib -0.078 | [3] 0.067 | [4] 0.013 | [5] -0.039 | saracatinib 0.027 | sotrastaurin 0.045

More results

RBM10 isoform 5 (UniProt P98175)
inactive: vemurafenib -0.004 | [1] -0.003 | barasertib -0.023 | [2] 0.02 | volasertib -0.017 | [3] 0.032 | [4] 0.015 | [5] -0.045 | saracatinib 0.016 | sotrastaurin -0.043

RFX7 (UniProt Q2KHR2)
inactive: vemurafenib 0.107 | [1] -0.079 | barasertib 0.092 | [2] 0.011 | volasertib -0.067 | [3] -0.046 | [4] 0.174 | [5] 0.007 | saracatinib -0.001 | sotrastaurin -0.027

RAPGEF5, A0A590UJR0
inactive: vemurafenib 0.138 | [1] -0.116 | barasertib -0.003 | [2] 0.189 | volasertib 0.009 | [3] 0 | [4] -0.15 | [5] 0.038 | saracatinib 0.001 | sotrastaurin -0.015

RASA2 (UniProt Q15283)
inactive: vemurafenib 0.069 | [1] 0.025 | barasertib -0.02 | [2] -0.055 | volasertib -0.018 | [3] 0.02 | [4] -0.028 | [5] -0.013 | saracatinib 0.068 | sotrastaurin -0.017

RBM27 (UniProt Q9P2N5)
inactive: vemurafenib 0.052 | [1] 0.004 | barasertib 0.033 | [2] 0.022 | volasertib 0.008 | [3] 0.022 | [4] 0.042 | [5] -0.021 | saracatinib 0.023 | sotrastaurin 0.009

RBBP4 (UniProt Q09028)
inactive: vemurafenib 0.014 | [1] 0.037 | barasertib -0.007 | [2] -0.001 | volasertib 0.014 | [3] -0.02 | [4] -0.128 | [5] 0.1 | saracatinib -0.006 | sotrastaurin -0.052

REL isoform 2 (UniProt Q04864)
inactive: vemurafenib -0.035 | [1] 0.017 | barasertib 0.033 | [2] 0.049 | volasertib -0.032 | [3] 0.025 | [4] 0.02 | [5] -0.174 | saracatinib -0.002 | sotrastaurin -0.022

RECQL5 (UniProt O94762)
inactive: vemurafenib -0.028 | [1] -0.045 | barasertib 0.02 | [2] 0.069 | volasertib -0.187 | [3] -0.01 | [4] 0.131 | [5] -0.222 | saracatinib 0.018 | sotrastaurin 0.003

RCN2 isoform 2 (UniProt Q14257)
inactive: vemurafenib -0.032 | [1] 0.004 | barasertib -0.022 | [2] -0.046 | volasertib 0.002 | [3] -0.033 | [4] 0.061 | [5] -0.013 | saracatinib -0.002 | sotrastaurin 0.019

RFXAP (UniProt O00287)
inactive: vemurafenib -0.02 | [1] -0.044 | barasertib 0.036 | [2] 0.095 | volasertib 0.003 | [3] -0.013 | [4] 0.47 | [5] 0.036 | saracatinib -0.024 | sotrastaurin 0.058

RCHY1 (UniProt Q96PM5)
inactive: vemurafenib -0.087 | [1] -0.037 | barasertib -0.008 | [2] -0.112 | volasertib 0.032 | [3] -0.073 | [4] 0.37 | [5] 0.001 | saracatinib -0.033 | sotrastaurin -0.201

RBM33 (UniProt Q96EV2)
inactive: vemurafenib 0.08 | [1] 0.042 | barasertib 0.038 | [2] 0.054 | volasertib 0.012 | [3] 0.02 | [4] 0.134 | [5] -0.002 | saracatinib 0.016 | sotrastaurin 0.027

RASA3 (UniProt Q14644)
inactive: vemurafenib -0.008 | [1] 0.009 | barasertib 0.107 | [2] -0.1 | volasertib -0.082 | [3] -0.058 | [4] 0.105 | [5] 0.298 | saracatinib -0.003 | sotrastaurin 0.048

RC3H1 (UniProt Q5TC82)
inactive: vemurafenib 0.024 | [1] -0.023 | barasertib -0.031 | [2] 0.062 | volasertib -0.054 | [3] 0.044 | [4] 0.12 | [5] 0.056 | saracatinib -0.051 | sotrastaurin 0.005

RBM22 (UniProt Q9NW64)
inactive: vemurafenib -0.014 | [1] -0.007 | barasertib 0.022 | [2] 0.078 | volasertib -0.004 | [3] -0.004 | [4] 0.058 | [5] 0.025 | saracatinib 0.01 | sotrastaurin -0.08

RBMY1E (UniProt A6NEQ0)
inactive: vemurafenib -0.023 | [1] -0.142 | barasertib 0.037 | [2] 0.141 | volasertib -0.092 | [4] -0.141 | [5] -0.216 | saracatinib 0.082 | sotrastaurin 0.044

RELCH (UniProt Q9P260)
inactive: vemurafenib 0.04 | [1] 0.053 | volasertib 0.199 | saracatinib -0.022 | sotrastaurin 0.021

RBSN (UniProt Q9H1K0)
inactive: vemurafenib 0.051 | [1] 0.01 | barasertib 0.023 | [2] 0.035 | volasertib -0.087 | [3] 0.006 | [4] -0.075 | [5] 0.038 | saracatinib 0.023 | sotrastaurin -0.019

RBM26 isoform 3 (UniProt Q5T8P6)
inactive: vemurafenib -0.043 | [1] 0.094 | barasertib 0 | [2] 0.123 | volasertib 0.047 | [3] -0.158 | saracatinib 0.097 | sotrastaurin 0.017

RBX1 (UniProt P62877)
inactive: vemurafenib -0.112 | [1] 0.493 | barasertib -0.054 | [2] -0.025 | volasertib 0.059 | [3] -0.054 | saracatinib -0.282 | sotrastaurin -0.024

RBBP6 (UniProt Q7Z6E9)
inactive: vemurafenib 0.051 | [1] 0.01 | barasertib 0.034 | [2] 0.022 | volasertib 0 | [3] -0.043 | [4] 0.034 | [5] -0.002 | saracatinib 0.039 | sotrastaurin -0.021

RBP5 (UniProt P82980)
inactive: vemurafenib -0.034 | [1] 0.054 | [2] 0.214 | volasertib 0.094 | [3] 0.108 | [4] -0.331 | [5] 0.153 | saracatinib -0.064 | sotrastaurin 0.156

RBCK1 (UniProt Q9BYM8)
inactive: vemurafenib -0.149 | [1] 0.053 | barasertib 0.045 | [2] -0.019 | volasertib 0.016 | [3] -0.001 | [4] 0.191 | [5] -0.092 | saracatinib 0.028 | sotrastaurin 0.033

RBM7 (UniProt Q9Y580)
inactive: vemurafenib 0.066 | [1] 0.035 | barasertib 0.068 | [2] 0.008 | volasertib -0.03 | [3] 0.018 | [4] 0.016 | [5] 0.011 | saracatinib 0.026 | sotrastaurin 0.046
